According to patent publication US20170182119A1:
Results are given in words; binding and its absence hold for the method and conditions named. Some results given as binding are weak or reduced against the parent protein; the word gives no strength. Sequences can lack the tags named with a protein.

By UniProt entry, the sequences of proteins in these tests, tags left out. Where a name states a change or a piece, a line headed by the entry shows the natural chain unless it says otherwise.
UniProt Q8MIP0: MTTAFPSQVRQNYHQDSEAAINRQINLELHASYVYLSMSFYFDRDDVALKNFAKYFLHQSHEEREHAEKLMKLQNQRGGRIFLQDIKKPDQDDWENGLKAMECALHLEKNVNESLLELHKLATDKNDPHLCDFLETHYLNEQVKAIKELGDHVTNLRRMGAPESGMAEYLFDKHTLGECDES
UniProt P02791: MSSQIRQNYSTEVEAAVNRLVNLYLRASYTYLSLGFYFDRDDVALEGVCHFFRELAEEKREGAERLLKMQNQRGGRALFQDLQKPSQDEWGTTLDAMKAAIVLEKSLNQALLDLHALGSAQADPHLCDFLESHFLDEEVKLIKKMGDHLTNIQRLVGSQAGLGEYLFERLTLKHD

Biological target: ferritin purified from horse spleen (mixture of FTH1 and FTL subunits) (horse) (UniProt Q8MIP0+P02791)
Experiment: GST pull-down of ferritin with bead-bound GST-NCOA4 fragments, FTH1 immunoblot

binding: binds
Binder: SFQVIKNSPLSEWLIRPPYKEGSPK (peptide, not shown: a dimerising Fc or GST) [GST-NCOA4 aa 485-509]
